From publication PMC7819943, “Rice protein-binding microarrays: a tool to detect cis-acting elements near promoter regions in rice”
The list shows a part of the results.

Target: T1, OsSMF1 (Oryza sativa, UniProt Q6ZLB0 1-436)
T1 sequence: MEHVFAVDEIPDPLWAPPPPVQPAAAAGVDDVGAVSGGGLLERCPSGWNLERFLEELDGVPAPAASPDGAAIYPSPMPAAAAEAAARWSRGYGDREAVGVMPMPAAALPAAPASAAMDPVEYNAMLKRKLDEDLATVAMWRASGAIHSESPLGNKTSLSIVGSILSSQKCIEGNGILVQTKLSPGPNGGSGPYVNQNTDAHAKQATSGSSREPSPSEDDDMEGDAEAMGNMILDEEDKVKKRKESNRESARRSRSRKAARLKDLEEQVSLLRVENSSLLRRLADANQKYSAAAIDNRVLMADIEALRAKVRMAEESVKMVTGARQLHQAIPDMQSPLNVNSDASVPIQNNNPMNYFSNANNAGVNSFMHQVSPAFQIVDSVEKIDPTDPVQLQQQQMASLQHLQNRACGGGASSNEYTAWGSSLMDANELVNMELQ
Experiment: protein-binding microarray (RPBM); PBS, 2% BSA, 51.3 ng/ul salmon testes DNA, 50 uM zinc acetate, 200 nM TF, 25 C, 1 h; high values mean tight binding
Details: protein: recombinant; tags: N-terminal polyhistidine and DsRed monomer fusion (pET32a); chain copies: 2; label: CyDye5-dUTP incorporated in the synthesized complementary strand; 3' TTTTT single-stranded linker to array surface; dsDNA, one strand shown
Procedure, shortened: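 Binding signal is reported as fluorescence intensity per feature (arbitrary units) from an Axon 4000B scanner. Incubation used 200 nM of each Ni–NTA-purified, N-terminally polyhistidine- and DsRed-fused transcription factor from E. coli BL21-CodonPlus on a double-stranded custom Agilent array for 1 h at 25 °C, with 50 µM zinc acetate in the buffer, followed by washing.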

For “TCAATTTCGATTCTCCCTCCGTCGTCGCGGCCCTATTCTACGGAGTCACCTAGTGCAG”, which binding signal is on record?
The binding signal was 3360 fluorescence intensity (a.u.).

With “GAGCTCCTTCCCCACACGTGGTTTCCCGCGCGAGATCCTCCGGAGTCACCTAGTGCAG” as the sequence, how does the binding signal read?
Its binding signal is 4430 fluorescence intensity (a.u.).

“AATATAGGGATACTGTGTTGGTGATGCTCTTAATCCTAGGCGGAGTCACCTAGTGCAG” was tested. Which binding signal did it give?
Its binding signal is 3220 fluorescence intensity (a.u.).

With “CGCCGAATCATTCGCGGCATATCGCATCGGCATCGGATTGCGGAGTCACCTAGTGCAG” as the sequence, how does the binding signal read?
The binding signal was 3390 fluorescence intensity (a.u.).

With “GCGGAAGCGCCATGTGGTTTGTCGTGACGTGGCGTGACGTCGGAGTCACCTAGTGCAG” as the sequence, how does the binding signal read?
Its binding signal is 32600 fluorescence intensity (a.u.).

“TTCTATATACAAATACAACAGCTAAACTGTGCCACTGGCGCGGAGTCACCTAGTGCAG” was tested. Which binding signal did it give?
Its binding signal is 4070 fluorescence intensity (a.u.).

“TACAGATGGTCGAGATTGACCCACGTCGTCCAAGGATTCGCGGAGTCACCTAGTGCAG” was tested. Which binding signal did it give?
Its binding signal is 4340 fluorescence intensity (a.u.).

Which binding signal does the source give for “CCTCGCATCGCATCCCCACCTCCGCCGATCCCGCCGTCTCCGGAGTCACCTAGTGCAG” here?
Its binding signal is 3400 fluorescence intensity (a.u.).

How did the binding signal turn out when “GCACCGGATTGGCTCCCTCTCCCGCATCACGCTACTGCCACGGAGTCACCTAGTGCAG” was run?
Its binding signal is 3160 fluorescence intensity (a.u.).

For “GTGGAAAACGCGCGTGCACCTCGAGGCAAACGAGCTCACCCGGAGTCACCTAGTGCAG”, which binding signal is on record?
The binding signal was 15400 fluorescence intensity (a.u.).

For “TTATTTTGTTATGAGTTGTTTTATCACTCATAGTACTTTACGGAGTCACCTAGTGCAG”, which binding signal is on record?
Its binding signal is 3590 fluorescence intensity (a.u.).

Which binding signal does the source give for “ATGGCTTGAGTCATGCTTAGTTTGGATAGCGGTCTAGTCTCGGAGTCACCTAGTGCAG” here?
The binding signal was 3310 fluorescence intensity (a.u.).

With “CAGTGGCGTGTTGATTCTGACAAGATTTATTGTCCTCCAACGGAGTCACCTAGTGCAG” as the sequence, how does the binding signal read?
Its binding signal is 4200 fluorescence intensity (a.u.).

“GCAATTTCATGGATTCTTTGGCCTGCCAGATTTCTTGTCTCGGAGTCACCTAGTGCAG” was tested. Which binding signal did it give?
Its binding signal is 27400 fluorescence intensity (a.u.).

“TGCCGTGGTCCAGAACTTAGCGTGTTGGGGTTCTCTTCCTCGGAGTCACCTAGTGCAG” was tested. Which binding signal did it give?
Its binding signal is 3650 fluorescence intensity (a.u.).

For “TTTTACTGCACGCATCTTAGTTACGATAAGTACTATTTTGCGGAGTCACCTAGTGCAG”, which binding signal is on record?
Its binding signal is 25000 fluorescence intensity (a.u.).

Which binding signal does the source give for “TGGTGCTGCTGATACTGACAATGCTGCTGCGAAACCTGCACGGAGTCACCTAGTGCAG” here?
Its binding signal is 3890 fluorescence intensity (a.u.).

Which binding signal does the source give for “GAGTACAAGACTGCATTTCAGTGTTACTGTAGTGCAAACACGGAGTCACCTAGTGCAG” here?
The binding signal was 14900 fluorescence intensity (a.u.).

How did the binding signal turn out when “CGTTTTCTGGCGCTTCCCATACAAACTGACGCGCTGTCTCCGGAGTCACCTAGTGCAG” was run?
The binding signal was 3740 fluorescence intensity (a.u.).

With “ACATAGGAAACTTATCTTATCTATCTAAACAGCCCAACAACGGAGTCACCTAGTGCAG” as the sequence, how does the binding signal read?
The binding signal was 3410 fluorescence intensity (a.u.).

For “CCCTTCCACACTCGCCAACACGTAAGCACGTACGACGCGCCGGAGTCACCTAGTGCAG”, which binding signal is on record?
The binding signal was 10800 fluorescence intensity (a.u.).

Which binding signal does the source give for “TTTGAGCGCCGCTCGACTATGTCATGAAGCAACGTGGCACCGGAGTCACCTAGTGCAG” here?
Its binding signal is 7750 fluorescence intensity (a.u.).

With “AATACGTATGCATTAACTTATAACGTAATCACCCGACTGACGGAGTCACCTAGTGCAG” as the sequence, how does the binding signal read?
The binding signal was 3350 fluorescence intensity (a.u.).

Which binding signal does the source give for “ATCGCGTTTGAACTTTGACGTGTTAGTTTTATGTTCCCATCGGAGTCACCTAGTGCAG” here?
The binding signal was 6380 fluorescence intensity (a.u.).

Which binding signal does the source give for “CGCCCATTCTACACCGTCTCCATCCATCTCATCTCGTCGTCGGAGTCACCTAGTGCAG” here?
Its binding signal is 3670 fluorescence intensity (a.u.).

“TGAGCGACTGTGCGGCGAGCACGCTGATGTGGCCGTCCTGCGGAGTCACCTAGTGCAG” was tested. Which binding signal did it give?
The binding signal was 3490 fluorescence intensity (a.u.).

For “GGTCCACTCCGCCGCCGGCGGAGGCGGCGGCGGCGAAGGCCGGAGTCACCTAGTGCAG”, which binding signal is on record?
Its binding signal is 32000 fluorescence intensity (a.u.).

With “TCTCCACTTCAGAGACGGTCCCACCTGTCATCCGCTCATACGGAGTCACCTAGTGCAG” as the sequence, how does the binding signal read?
The binding signal was 4680 fluorescence intensity (a.u.).

How did the binding signal turn out when “TTAAGATACATTTCAATTATTAATGAATGACGCATATGAACGGAGTCACCTAGTGCAG” was run?
The binding signal was 3710 fluorescence intensity (a.u.).

With “GGCGTCGTCCCCGTCCACAGCCACGCCGCCGAGCCGTGCTCGGAGTCACCTAGTGCAG” as the sequence, how does the binding signal read?
Its binding signal is 32600 fluorescence intensity (a.u.).

“CCCCACTTCTTGGGTCCTTCCCCATCGTCTTCCACGTCGACGGAGTCACCTAGTGCAG” was tested. Which binding signal did it give?
The binding signal was 4970 fluorescence intensity (a.u.).

How did the binding signal turn out when “CAGCCGCGCCGCTCGCTGCCTCCGTTTACAGCCGTGACGCCGGAGTCACCTAGTGCAG” was run?
The binding signal was 5170 fluorescence intensity (a.u.).

For “CCTCCCACGCCGCCACCCGCGCCCTGATGTCCGCGTCCGTCGGAGTCACCTAGTGCAG”, which binding signal is on record?
Its binding signal is 4470 fluorescence intensity (a.u.).

“TACTAATCTAGTCAAAAGCCAGCATGATGCTGTCAAATTTCGGAGTCACCTAGTGCAG” was tested. Which binding signal did it give?
The binding signal was 3410 fluorescence intensity (a.u.).

With “ACCCGGAGTATAATCAAGTGAATTTTCATCCACGTGCACACGGAGTCACCTAGTGCAG” as the sequence, how does the binding signal read?
Its binding signal is 4910 fluorescence intensity (a.u.).

With “TCGGTCGCACCTACAACGAGGTGGCCAGGTCACCTACTGCCGGAGTCACCTAGTGCAG” as the sequence, how does the binding signal read?
Its binding signal is 3330 fluorescence intensity (a.u.).

For “CGATGATTGTGCTAGTATACATGTGTTGACGATGTATTGTCGGAGTCACCTAGTGCAG”, which binding signal is on record?
Its binding signal is 4020 fluorescence intensity (a.u.).

Which binding signal does the source give for “CACGCCAAGCCTTGAGTGTCGTGGCCTTGAGCTGGGGATGCGGAGTCACCTAGTGCAG” here?
Its binding signal is 20800 fluorescence intensity (a.u.).

Which binding signal does the source give for “TATAAACGGGGTAGCGCATGAGACCTACAAGTGGATGGATCGGAGTCACCTAGTGCAG” here?
The binding signal was 3220 fluorescence intensity (a.u.).

Which binding signal does the source give for “AGTACCATCGCCTGTTCGTAGAATTCTTTGCCAGCACAAGCGGAGTCACCTAGTGCAG” here?
Its binding signal is 3270 fluorescence intensity (a.u.).

Which binding signal does the source give for “AAAATTATGTTGTCATTTTAATATATTTGAATAATACATTCGGAGTCACCTAGTGCAG” here?
Its binding signal is 3560 fluorescence intensity (a.u.).

With “CACGCCGCCGCCCGTCGCGAGCTCCACGTCGAGCAGCAGCCGGAGTCACCTAGTGCAG” as the sequence, how does the binding signal read?
Its binding signal is 4920 fluorescence intensity (a.u.).
